The values below come from PMC5514938.

Sequences of proteins named here, by UniProt entry; tags and fusion partners are left off.
UniProt Q8R4B8: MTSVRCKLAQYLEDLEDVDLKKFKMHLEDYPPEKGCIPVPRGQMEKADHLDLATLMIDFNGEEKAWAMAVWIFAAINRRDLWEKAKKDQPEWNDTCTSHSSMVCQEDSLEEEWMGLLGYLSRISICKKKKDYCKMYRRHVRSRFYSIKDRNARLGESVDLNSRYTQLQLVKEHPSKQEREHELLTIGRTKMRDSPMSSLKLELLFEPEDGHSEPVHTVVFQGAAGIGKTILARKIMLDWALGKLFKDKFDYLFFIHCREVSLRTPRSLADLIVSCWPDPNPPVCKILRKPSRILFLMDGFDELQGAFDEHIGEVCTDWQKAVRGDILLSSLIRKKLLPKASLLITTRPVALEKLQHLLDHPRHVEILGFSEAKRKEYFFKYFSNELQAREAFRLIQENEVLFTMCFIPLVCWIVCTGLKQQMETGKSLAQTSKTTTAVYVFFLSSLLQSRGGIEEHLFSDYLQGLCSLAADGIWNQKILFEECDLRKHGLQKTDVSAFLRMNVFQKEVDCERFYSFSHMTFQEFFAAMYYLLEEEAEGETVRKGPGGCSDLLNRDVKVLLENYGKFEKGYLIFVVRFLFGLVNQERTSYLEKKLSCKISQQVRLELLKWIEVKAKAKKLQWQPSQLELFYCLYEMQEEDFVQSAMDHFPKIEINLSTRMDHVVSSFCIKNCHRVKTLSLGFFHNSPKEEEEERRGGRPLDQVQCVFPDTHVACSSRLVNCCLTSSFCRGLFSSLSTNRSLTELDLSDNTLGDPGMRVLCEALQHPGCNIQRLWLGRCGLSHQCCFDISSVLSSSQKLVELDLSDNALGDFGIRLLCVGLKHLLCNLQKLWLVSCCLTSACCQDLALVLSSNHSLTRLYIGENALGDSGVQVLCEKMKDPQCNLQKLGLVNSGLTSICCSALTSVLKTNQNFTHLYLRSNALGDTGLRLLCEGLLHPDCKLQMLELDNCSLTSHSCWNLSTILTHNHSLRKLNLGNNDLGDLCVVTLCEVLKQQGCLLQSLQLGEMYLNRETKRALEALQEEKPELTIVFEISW

Assay [1] deals with NACHT, LRR, and PYD domains-containing protein 3 (mouse (endogenous in Kupffer cells)) (UniProt Q8R4B8). In words: co-IP; as a1 (anti-NLRP3 antibody, Protein A magnetic beads, western blot), but KCs from WT mice on normal diet (normal group) or high-fat diet (NAFL group).
Assay [2] shares this target. In words: co-IP; 500 ug of Kupffer cell lysate (IP lysis buffer) with 5 ug anti-NLRP3 antibody at 4°C overnight, Protein A magnetic beads, western blot; KCs from WT mice on MCD diet (NASH), from TXNIP-/- mice on HFD or MCD diet, and cultured WT KCs with or without palmitic acid (0.32 mM, 12 h).

No constants are given. Whether binding was seen depends on the method and setting. Binding seen in cells or lysates may run through a third protein. Some binding calls cover weakened binding; strength is not graded here.

B1: Caspase-1 (enzyme, UniProt P29452 1-402)
chain: MADKILRAKRKQFINSVSIGTINGLLDELLEKRVLNQEEMDKIKLANITAMDKARDLCDHVSKKGPQASQIFITYICNEDCYLAGILELQSAPSAETFVATEDSKGGHPSSSETKEEQNKEDGTFPGLTGTLKFCPLEKAQKLWKENPSEIYPIMNTTTRTRLALIICNTEFQHLSPRVGAQVDLREMKLLLEDLGYTVKVKENLTALEMVKEVKEFAACPEHKTSDSTFLVFMSHGIQEGICGTTYSNEVSDILKVDTIFQMMNTLKCPSLKDKPKVIIIQACRGEKQGVVLLKDSVRDSEEDFLTDAIFEDDGIKKAHIEKDFIAFCSSTPDNVSWRHPVRGSLFIESLIKHMKEYAWSCDLEDIFRKVRFSFEQPEFRLQMPTADRVTLTKRFYLFPGH
For the molecule B1, the figures for the binding result in assay [1] and in assay [2] were “binds weakly” and “binds”, respectively.

B2: Thioredoxin-interacting protein (protein, UniProt Q8BG60 1-397)
chain: MVMFKKIKSFEVVFNDPEKVYGSGEKVAGRVIVEVCEVTRVKAVRILACGVAKVLWMQGSQQCKQTLDYLRYEDTLLLEEQPTAGENEMVIMRPGNKYEYKFGFELPQGPLGTSFKGKYGCVDYWVKAFLDRPSQPTQEAKKNFEVMDLVDVNTPDLMAPVSAKKEKKVSCMFIPDGRVSVSARIDRKGFCEGDDISIHADFENTCSRIVVPKAAIVARHTYLANGQTKVFTQKLSSVRGNHIISGTCASWRGKSLRVQKIRPSILGCNILKVEYSLLIYVSVPGSKKVILDLPLVIGSRSGLSSRTSSMASRTSSEMSWIDLNIPDTPEAPPCYMDIIPEDHRLESPTTPLLDDVDDSQDSPIFMYAPEFQFMPPPTYTEVDPCVLNNNNNNNNVQ
B2: the binding result is “binds weakly” in assay [1] and “binds” in assay [2].
